Source: publication PMC3113800
These are yes or no findings as the source states them, for the method shown. Some entries that bind do so weakly or less than the wild type.

Sequences of proteins named here, by UniProt entry; tags and fusion partners are left off. Residues count along the entry.
UniProt P36544, residues 23-502: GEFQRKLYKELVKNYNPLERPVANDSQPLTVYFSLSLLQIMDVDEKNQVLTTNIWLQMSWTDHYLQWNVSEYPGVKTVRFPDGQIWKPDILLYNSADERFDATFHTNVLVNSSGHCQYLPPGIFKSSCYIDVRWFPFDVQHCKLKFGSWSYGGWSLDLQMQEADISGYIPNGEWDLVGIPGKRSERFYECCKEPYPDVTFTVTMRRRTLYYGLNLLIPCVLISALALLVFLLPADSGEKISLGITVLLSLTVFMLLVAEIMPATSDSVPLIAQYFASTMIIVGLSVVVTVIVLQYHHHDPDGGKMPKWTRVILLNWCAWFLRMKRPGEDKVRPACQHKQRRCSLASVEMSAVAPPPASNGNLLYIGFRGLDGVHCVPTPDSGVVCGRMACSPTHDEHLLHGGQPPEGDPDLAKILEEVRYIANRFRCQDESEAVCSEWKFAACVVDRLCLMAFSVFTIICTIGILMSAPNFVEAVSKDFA
UniProt P60615, residues 22-95: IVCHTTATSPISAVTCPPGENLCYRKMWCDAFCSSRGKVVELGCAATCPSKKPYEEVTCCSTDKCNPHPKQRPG

Molecular target: human α7 nicotinic acetylcholine receptor (human) (UniProt P36544)
Assay: radioligand binding; only the binder purified

In the case of “radioactive α-bungarotoxin (from UniProt P60615 22-95)”, the binding is reported as “binds”.
